The record followed here is the supplement of paper PMC11006884.

Sequences of proteins named here, by UniProt entry; tags and fusion partners are left off. A change or cut given only in a name is not applied to a line headed by its entry.
UniProt Q9NPH2: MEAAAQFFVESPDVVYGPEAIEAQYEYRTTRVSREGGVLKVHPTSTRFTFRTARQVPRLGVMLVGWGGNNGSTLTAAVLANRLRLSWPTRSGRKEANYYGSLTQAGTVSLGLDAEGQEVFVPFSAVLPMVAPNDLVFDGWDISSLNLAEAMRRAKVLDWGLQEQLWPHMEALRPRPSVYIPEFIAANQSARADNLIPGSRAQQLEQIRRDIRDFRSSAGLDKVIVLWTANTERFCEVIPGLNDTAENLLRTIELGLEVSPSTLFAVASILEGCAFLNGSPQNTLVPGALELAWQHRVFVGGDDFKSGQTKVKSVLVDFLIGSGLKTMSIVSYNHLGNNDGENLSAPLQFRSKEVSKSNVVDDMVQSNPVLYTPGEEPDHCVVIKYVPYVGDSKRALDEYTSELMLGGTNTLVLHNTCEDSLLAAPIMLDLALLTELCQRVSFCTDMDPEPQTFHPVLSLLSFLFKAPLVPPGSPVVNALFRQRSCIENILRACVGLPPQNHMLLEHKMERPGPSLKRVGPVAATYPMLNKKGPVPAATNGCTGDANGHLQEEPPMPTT
UniProt Q9HA77: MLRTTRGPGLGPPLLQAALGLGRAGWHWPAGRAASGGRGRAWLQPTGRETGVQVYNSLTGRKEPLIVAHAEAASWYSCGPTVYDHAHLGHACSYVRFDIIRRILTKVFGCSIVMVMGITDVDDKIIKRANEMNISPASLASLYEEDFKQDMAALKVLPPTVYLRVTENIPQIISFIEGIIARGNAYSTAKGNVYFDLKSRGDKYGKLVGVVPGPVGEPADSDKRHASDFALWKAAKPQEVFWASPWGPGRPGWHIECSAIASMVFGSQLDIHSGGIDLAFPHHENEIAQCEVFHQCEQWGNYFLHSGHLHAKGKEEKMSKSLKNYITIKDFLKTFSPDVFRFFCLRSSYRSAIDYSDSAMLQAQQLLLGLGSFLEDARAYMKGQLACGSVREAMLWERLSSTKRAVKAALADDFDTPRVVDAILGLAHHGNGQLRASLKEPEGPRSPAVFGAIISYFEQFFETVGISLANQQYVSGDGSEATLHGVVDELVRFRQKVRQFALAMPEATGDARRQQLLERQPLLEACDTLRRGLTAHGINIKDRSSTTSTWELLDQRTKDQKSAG
UniProt Q9H3U1: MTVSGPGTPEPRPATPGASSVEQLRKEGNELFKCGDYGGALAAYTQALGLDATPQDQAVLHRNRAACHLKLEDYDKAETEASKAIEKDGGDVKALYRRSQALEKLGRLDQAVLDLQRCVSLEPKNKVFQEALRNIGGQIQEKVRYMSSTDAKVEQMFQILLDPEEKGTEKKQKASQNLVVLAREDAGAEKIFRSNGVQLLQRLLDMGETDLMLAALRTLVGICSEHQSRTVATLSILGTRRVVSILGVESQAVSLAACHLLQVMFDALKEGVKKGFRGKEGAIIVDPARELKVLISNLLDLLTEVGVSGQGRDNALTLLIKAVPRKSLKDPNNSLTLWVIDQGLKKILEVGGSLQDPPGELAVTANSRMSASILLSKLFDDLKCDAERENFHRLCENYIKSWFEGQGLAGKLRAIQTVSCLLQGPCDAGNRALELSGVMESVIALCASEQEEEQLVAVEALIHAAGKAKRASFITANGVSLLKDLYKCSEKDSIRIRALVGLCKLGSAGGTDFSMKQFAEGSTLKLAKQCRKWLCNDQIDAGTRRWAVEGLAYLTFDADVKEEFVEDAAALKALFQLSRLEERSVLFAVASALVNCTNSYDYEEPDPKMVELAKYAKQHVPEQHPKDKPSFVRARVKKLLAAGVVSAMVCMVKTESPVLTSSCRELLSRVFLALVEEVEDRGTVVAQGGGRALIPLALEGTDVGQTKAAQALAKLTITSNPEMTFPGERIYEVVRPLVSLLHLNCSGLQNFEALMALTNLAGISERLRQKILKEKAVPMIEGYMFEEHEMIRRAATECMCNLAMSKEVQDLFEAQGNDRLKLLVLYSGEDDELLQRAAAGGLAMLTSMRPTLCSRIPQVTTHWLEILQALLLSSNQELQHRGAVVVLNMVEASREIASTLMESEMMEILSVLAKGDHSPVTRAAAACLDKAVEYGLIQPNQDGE
UniProt Q9H7N4: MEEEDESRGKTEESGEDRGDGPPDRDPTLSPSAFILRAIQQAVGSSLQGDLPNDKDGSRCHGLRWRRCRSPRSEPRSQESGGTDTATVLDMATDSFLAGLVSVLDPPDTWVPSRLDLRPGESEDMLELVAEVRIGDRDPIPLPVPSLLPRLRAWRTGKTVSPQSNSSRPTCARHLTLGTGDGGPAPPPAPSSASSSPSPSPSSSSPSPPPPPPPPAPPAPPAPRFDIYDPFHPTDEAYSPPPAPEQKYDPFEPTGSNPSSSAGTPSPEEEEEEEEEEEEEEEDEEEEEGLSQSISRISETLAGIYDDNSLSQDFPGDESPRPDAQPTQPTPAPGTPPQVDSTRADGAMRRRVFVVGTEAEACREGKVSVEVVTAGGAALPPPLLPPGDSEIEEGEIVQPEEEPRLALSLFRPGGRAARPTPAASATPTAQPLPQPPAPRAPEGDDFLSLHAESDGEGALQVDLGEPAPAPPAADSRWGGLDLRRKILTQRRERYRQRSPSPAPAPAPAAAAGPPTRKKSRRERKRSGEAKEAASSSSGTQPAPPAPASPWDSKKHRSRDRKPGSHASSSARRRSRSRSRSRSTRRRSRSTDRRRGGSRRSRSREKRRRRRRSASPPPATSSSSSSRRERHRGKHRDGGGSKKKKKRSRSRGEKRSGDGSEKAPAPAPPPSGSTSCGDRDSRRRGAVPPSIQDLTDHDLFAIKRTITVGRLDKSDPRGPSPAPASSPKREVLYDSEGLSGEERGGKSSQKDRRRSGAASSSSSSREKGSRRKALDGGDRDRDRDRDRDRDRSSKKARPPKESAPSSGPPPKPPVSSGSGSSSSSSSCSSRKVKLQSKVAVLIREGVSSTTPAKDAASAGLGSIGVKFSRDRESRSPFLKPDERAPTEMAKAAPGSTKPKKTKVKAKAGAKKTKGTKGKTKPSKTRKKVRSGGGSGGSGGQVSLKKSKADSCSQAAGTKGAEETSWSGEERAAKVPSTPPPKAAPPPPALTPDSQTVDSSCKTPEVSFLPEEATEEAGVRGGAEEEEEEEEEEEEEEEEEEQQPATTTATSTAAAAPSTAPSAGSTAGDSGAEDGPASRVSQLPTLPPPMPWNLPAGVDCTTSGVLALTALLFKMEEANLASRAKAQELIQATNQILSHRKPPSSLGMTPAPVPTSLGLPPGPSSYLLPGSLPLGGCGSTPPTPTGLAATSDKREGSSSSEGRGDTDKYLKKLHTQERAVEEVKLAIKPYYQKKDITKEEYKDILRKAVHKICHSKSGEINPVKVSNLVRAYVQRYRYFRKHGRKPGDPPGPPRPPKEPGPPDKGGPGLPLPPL
UniProt Q9NQT5, whole entry: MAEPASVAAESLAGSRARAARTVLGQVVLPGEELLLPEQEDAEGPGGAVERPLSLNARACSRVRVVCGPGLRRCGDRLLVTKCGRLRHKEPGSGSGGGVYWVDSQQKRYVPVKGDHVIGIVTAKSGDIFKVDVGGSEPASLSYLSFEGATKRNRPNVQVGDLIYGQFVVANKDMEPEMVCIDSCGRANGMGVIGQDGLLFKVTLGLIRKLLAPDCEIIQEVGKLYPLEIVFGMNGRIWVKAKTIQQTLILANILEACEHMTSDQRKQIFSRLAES
UniProt Q9H974: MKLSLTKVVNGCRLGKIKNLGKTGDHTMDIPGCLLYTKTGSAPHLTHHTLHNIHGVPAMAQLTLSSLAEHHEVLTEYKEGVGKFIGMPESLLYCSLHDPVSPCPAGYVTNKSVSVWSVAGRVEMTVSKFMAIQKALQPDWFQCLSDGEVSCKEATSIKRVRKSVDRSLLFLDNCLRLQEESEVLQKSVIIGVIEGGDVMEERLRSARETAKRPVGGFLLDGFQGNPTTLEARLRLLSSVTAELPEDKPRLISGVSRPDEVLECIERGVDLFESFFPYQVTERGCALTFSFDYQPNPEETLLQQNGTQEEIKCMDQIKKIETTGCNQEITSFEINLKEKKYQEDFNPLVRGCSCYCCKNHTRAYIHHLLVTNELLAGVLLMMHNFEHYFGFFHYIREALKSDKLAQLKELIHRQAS
UniProt Q9NPI1: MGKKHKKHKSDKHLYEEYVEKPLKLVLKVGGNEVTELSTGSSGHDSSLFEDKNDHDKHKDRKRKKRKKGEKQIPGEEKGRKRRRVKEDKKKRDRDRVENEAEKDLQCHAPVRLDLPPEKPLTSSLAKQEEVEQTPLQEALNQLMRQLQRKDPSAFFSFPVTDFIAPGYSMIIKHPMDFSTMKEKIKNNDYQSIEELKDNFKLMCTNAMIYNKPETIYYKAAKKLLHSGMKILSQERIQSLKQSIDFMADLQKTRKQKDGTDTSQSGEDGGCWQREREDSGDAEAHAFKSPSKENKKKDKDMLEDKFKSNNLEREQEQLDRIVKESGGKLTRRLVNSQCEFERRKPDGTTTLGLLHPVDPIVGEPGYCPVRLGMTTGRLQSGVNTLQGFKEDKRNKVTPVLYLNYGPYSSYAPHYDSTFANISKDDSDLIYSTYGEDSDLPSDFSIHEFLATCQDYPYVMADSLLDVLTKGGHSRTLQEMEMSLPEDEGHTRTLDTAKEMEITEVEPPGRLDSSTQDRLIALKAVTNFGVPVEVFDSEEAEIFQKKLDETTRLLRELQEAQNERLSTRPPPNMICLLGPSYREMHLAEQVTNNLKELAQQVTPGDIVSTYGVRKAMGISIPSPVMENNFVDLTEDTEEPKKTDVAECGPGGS
UniProt Q9NPD3, whole entry, looked up: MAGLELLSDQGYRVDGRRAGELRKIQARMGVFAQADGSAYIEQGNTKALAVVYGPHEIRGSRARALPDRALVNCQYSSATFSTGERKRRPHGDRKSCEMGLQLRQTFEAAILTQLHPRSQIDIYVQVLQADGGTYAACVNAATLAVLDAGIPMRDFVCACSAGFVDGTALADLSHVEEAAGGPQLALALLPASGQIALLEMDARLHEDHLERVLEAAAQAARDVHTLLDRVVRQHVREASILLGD
UniProt Q9H7E9: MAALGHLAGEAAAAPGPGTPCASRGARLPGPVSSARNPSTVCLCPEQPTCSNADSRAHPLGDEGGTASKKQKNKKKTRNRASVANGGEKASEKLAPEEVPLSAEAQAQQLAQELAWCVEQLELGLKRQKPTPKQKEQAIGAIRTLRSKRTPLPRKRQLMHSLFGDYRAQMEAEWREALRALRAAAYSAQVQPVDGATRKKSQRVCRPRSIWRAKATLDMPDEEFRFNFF
UniProt Q9H9A5, whole entry, looked up: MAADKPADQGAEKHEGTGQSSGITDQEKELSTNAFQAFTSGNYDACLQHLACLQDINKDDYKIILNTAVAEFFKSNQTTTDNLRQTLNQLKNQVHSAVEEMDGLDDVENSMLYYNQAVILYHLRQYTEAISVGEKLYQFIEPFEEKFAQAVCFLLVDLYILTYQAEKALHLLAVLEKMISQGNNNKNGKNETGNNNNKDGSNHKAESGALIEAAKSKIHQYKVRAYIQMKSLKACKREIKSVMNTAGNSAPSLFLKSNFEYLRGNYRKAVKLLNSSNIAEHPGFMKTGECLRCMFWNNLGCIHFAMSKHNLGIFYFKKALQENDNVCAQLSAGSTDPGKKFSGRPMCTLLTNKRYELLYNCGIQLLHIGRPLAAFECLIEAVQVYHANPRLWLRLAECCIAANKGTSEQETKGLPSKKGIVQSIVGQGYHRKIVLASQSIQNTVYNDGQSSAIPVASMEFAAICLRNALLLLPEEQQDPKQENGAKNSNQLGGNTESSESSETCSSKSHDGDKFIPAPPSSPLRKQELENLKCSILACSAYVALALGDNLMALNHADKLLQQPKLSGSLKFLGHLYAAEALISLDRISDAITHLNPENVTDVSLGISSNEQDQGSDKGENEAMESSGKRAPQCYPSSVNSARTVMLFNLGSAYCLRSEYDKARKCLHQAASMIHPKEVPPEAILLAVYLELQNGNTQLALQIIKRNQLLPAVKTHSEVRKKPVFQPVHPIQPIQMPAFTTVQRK
UniProt Q9NSD9: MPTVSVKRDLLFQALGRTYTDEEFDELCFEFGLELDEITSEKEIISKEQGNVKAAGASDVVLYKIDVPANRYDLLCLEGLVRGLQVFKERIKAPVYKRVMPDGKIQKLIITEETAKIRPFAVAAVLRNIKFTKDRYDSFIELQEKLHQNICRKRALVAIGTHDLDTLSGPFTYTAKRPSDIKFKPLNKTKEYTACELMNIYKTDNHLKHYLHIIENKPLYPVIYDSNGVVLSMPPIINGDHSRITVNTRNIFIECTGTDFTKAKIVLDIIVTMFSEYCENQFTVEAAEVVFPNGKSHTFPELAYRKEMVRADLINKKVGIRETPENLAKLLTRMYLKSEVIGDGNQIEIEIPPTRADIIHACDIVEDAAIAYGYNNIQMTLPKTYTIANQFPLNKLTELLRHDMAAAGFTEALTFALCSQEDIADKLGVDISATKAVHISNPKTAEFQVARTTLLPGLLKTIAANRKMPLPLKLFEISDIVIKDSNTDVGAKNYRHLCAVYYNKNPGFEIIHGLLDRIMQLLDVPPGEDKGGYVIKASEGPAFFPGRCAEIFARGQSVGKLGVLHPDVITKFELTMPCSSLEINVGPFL

This list holds what a sample rich in targets with a hit left over. Single values of this set are uncertain. The list shows a part of the results, in another mix than the full data.

Compound in the test: COC(=O)/C=C/c1ccccc1 [methyl cinnamate]
Briefly: log2 ratio of iodoacetamide-alkyne labeling of the cysteine site, DMSO over compound (competition); higher = stronger covalent engagement of the cysteine by the compound, active = 1 or more. The following applies: 500 µM; treatment time 1 h; system: HEK293T cell lysate. In a few lines: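 For each cysteine, the log2 competition ratio is mean control-channel reporter intensity over mean compound-channel reporter intensity. HEK293T lysate (2 mg/mL) was exposed to vehicle or electrophile (500 µM, 1 h, ambient temperature), labelled with iodoacetamide alkyne (1 h), clicked to sCIP-TMT reagents, digested overnight with trypsin at 37 °C, streptavidin-enriched and analysed by Orbitrap Eclipse LC-MS/MS with FAIMS and FragPipe. Cysteines quantified in only one of three replicates, each with duplicate channels, were excluded.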
With ISYNA1 C541 (UniProt Q9NPH2), the “log2 ratio of iodoacetamide-alkyne labeling” value (“log2 ratio” for short) is inactive: 0.371.

MDN1 C43 (UniProt Q9NU22): the “log2 ratio” value was inactive: 0.393.

As for CARS2 C526 (UniProt Q9HA77), the “log2 ratio” value was inactive: 0.207.

As to UNC45A C927 (UniProt Q9H3U1), the “log2 ratio” value is inactive: 0.176.

For the target MRPL47 C87 (UniProt Q9HD33), the “log2 ratio” value was inactive: 0.0315.

BAZ1A C586 (UniProt Q9NRL2): the “log2 ratio” value was inactive: 0.181.

Consider GPHN C26 (UniProt Q9NQX3), for which the “log2 ratio” value is inactive: 0.0339.

With SCAF1 C950 (UniProt Q9H7N4), the “log2 ratio” value is inactive: 0.333.

Consider IARS2 C155 (UniProt Q9NSE4), for which the “log2 ratio” value was inactive: 0.0867.

For EXOSC3 C184 (UniProt Q9NQT5), the “log2 ratio” value is inactive: 0.231.

On to UniProt Q9H974_C324, for which the “log2 ratio” value was inactive: 0.265.

As for BRD7 C271 (UniProt Q9NPI1), the “log2 ratio” value is inactive: 0.451.

In the case of EXOSC4 C74 (UniProt Q9NPD3), the “log2 ratio” value was inactive: 0.281.

For the target UPF2 C578 (UniProt Q9HAU5), the “log2 ratio” value is inactive: -0.198.

Consider C8orf33 C21 (UniProt Q9H7E9), for which the “log2 ratio” value is inactive: 0.107.

MDN1 C271 (UniProt Q9NU22): the “log2 ratio” value was inactive: 0.465.

Regarding PNN C439 (UniProt Q9H307), the “log2 ratio” value was inactive: 0.00011.

As to TFB2M C383 (UniProt Q9H5Q4), the “log2 ratio” value is inactive: 0.199.

Turning to CNOT10 C504 (UniProt Q9H9A5), the “log2 ratio” value was inactive: 0.0315.

Consider FARSB C195 (UniProt Q9NSD9), for which the “log2 ratio” value was inactive: 0.101.

EPB41L5 C727 (UniProt Q9HCM4): the “log2 ratio” value was inactive: -0.0993.
